Results deposited as PubChem BioAssay AID686937 (Drosophila RNAi Screening Center, 2013)

Screen: 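Genes in the fly needed for secretion of protein constitutively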 (primary screen)
System: Drosophila S2 cells expressing secreted horseradish peroxidase
Knock-down reagent: long dsRNA against Drosophila genes
Duration: about 5.5 days (5 days dsRNA, then 12 h reporter induction)
Treatment: reporter expression induced after 5 days of dsRNA, read 12 h later; inducer not stated
Read-out: 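Chemiluminescent measurement of peroxidase in the medium 12 h after reporter induction, following 5 days of dsRNA, given as a z-score per plate; higher means more secretion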
Reading the numbers: z-score: higher = more reporter secreted into medium
The deposit covers about 23,000 reagents; below is an unselected part of those with a known target gene and a result. 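Reduced-secretion tags in replicate 1 do not always agree with the z-scores; no criterion for assigning the tags was given.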 Further read-outs or replicates are left out here. Not stated in the record: the amount of reagent.

z-score, replicate 1, by target and reagent
CG13501: DRSC04146 0.2
t: DRSC17815 0.34
CG9970: DRSC08644 0.11
CG4789: DRSC19918 0.1
CG2182: DRSC12308 0.32
CG7556: DRSC20052 -1.87
Inx5: DRSC20051 0.56
CG7889: DRSC20066 0.23
CG33096: DRSC14440 0.14
pHCl-2: DRSC14306 -0.05
His4r: DRSC16703 -2.94
CG5715: DRSC15860 0.08
CG8547: DRSC07211 0.4
Sry-beta: DRSC16868 0.05
Hen1: DRSC06139 0.4; DRSC06140 0.24
Sgt1: DRSC16519 -0.05
CG18095: DRSC01948 0.03
gNacalpha: DRSC00654 0.01
mRpL42: DRSC06235 0.18
Ccz1: DRSC08439 -0.41
CG31908: DRSC21864 0.15
CG9143: DRSC07338 0.24
Dred: DRSC11057 0.29; DRSC11059 0.53
CG42521: DRSC10154 0.69
ArgRS: DRSC20138 -0.56
CG12885: DRSC14572 0.58
Phax: DRSC07066 0.26
Spn42Dd: DRSC05024 0.38; DRSC22060 0.78
CG2926: DRSC12321 -0.02
EndoB: DRSC07345 -0.78
CG13231: DRSC06351 0.42
CG12259: DRSC14486 0.24
CG14352: DRSC00382 0.4
CG9701: DRSC11093 0.6
CG17486: DRSC07752 0.7
Kdm5: DRSC03133 0.15
CG14014: DRSC02345 0.19
Cyp6a20: DRSC07380 0.11
CG2218: DRSC15428 0.43
CG7320: DRSC10810 0.29
GstT3: DRSC20541 -0.48
CG1537: DRSC19662 0.36
Slmap: DRSC03799 -1.19
Mi-2: DRSC11222 -0.06
Urod: DRSC07569 0.45
Mst27D: DRSC00967 0.46
CG14629: DRSC18476 -0.06

Not a retest: entries from further up.
z-score, replicate 1, by target and reagent
pHCl-2: DRSC14306 -0.05
His4r: DRSC16703 -2.94
CG5715: DRSC15860 0.08
CG8547: DRSC07211 0.4
Sry-beta: DRSC16868 0.05
Hen1: DRSC06139 0.4; DRSC06140 0.24
Sgt1: DRSC16519 -0.05
CG18095: DRSC01948 0.03
gNacalpha: DRSC00654 0.01
mRpL42: DRSC06235 0.18
Ccz1: DRSC08439 -0.41
CG31908: DRSC21864 0.15
CG9143: DRSC07338 0.24
Dred: DRSC11057 0.29

Next results:
z-score, replicate 1, by target and reagent
FASN2: DRSC00167 -0.1; DRSC00610 0.29
Naa80: DRSC16429 0.45
CG3213: DRSC00576 -1.87
CG6845: DRSC08576 -0.12
CG8236: DRSC16399 0.42
hoip: DRSC03546 -6.47
CG12851: DRSC04131 0.2
CG42233: DRSC14328 0.1; DRSC15416 0.32
krz: DRSC16979 0.44
CG17625: DRSC15249 0.37
CG31106: DRSC14655 0.19
CG6813: DRSC16122 0.25
S6kII: DRSC20645 0.45
CG30158: DRSC04956 0.15; DRSC04974 0.4; DRSC04975 0.31; DRSC05012 0.3
mGluR: DRSC17215 0.22
Or1a: DRSC18689 0.16
CG15753 (retired record): DRSC18982 -0.33; DRSC19503 0.44; DRSC19716 0.1; DRSC19717 0.39; DRSC19718 -4.94
Pur-alpha: DRSC17166 0.38
CG34457: DRSC06924 -0.26
CR33013: DRSC06286 -0.42
stmA: DRSC05120 0.58; DRSC07593 0.43; DRSC22179 0.67
eEF1beta: DRSC07419 0.41
Rpn12R: DRSC09842 0.44
Mrp4: DRSC14931 0.08
GlcAT-I: DRSC17307 0.08
Fbp1: DRSC11166 -0.33
mRpS6: DRSC08470 0.26
CG3557: DRSC00614 0.14
CG8508: DRSC16436 0.28
CG9536: DRSC03254 0.39
bocks: DRSC16489 0.47
CG16719: DRSC10222 0.07
gsb-n: DRSC04021 0.3; DRSC04693 0.26
ldd: DRSC20558 0.44; DRSC22696 -0.92
CG6006: DRSC13137 0.54; DRSC15946 0.51
CG17883: DRSC07838 -0.09
Abd-B: DRSC14098 -0.04; DRSC14337 -0.22
Smurf: DRSC07641 0.09
Iswi: DRSC07446 -1.05
